According to PMC11490702:
Residue numbers refer to the chain shown, from its start. In names and notes the source's numbering stands. Results are given in words; binding and its absence hold for the method and conditions named. Binding seen in cells or lysates may run through a third protein. Some binding calls cover weakened binding; strength is not graded here. Sequences can lack the tags named with a protein. Each block holds one binder with its values, some of them ahead of it.

Assays:
[1] = biological target: T1, Flag-Chk1 (UniProt O14757); experiment: co-IP; HEK-293T cells transfected with HA-OGT (WT or R17C) and Flag-Chk1; lysates immunoprecipitated and immunoblotted
T1 sequence: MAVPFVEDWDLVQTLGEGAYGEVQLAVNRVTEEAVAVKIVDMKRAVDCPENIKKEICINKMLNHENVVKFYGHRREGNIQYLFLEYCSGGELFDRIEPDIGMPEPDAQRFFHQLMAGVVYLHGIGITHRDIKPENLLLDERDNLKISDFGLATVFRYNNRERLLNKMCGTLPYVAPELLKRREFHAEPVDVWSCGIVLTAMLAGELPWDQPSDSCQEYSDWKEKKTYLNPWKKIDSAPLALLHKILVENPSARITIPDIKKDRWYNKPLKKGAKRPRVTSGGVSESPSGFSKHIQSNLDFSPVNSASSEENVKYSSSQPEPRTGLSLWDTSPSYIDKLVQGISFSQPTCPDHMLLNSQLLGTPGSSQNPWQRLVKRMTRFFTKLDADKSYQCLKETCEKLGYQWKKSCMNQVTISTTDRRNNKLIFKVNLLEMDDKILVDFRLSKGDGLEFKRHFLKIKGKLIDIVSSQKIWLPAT

[2] = biological target: T2, endogenous Chk1 (human (endogenous in HeLa or HEK293T)) (UniProt O14757); experiment: co-IP; transfected OGT (WT or R17C) with endogenous Chk1
T2 sequence: T1 sequence

[3] = biological target: T3, Recombinant GST-Chk1 (UniProt O14757); experiment: pull-down; recombinant GST-Chk1 incubated with lysates of cells transfected with HA-OGT-WT or -R17C; GST pulldown; only the target purified
T3 sequence: T1 sequence

[4] = biological target: T4, Flag-OGT-WT (UniProt O15294); experiment: co-IP; cells co-transfected with Flag-OGT (WT or S20A) and HA-14-3-3 isoforms; immunoprecipitated with anti-Flag
T4 sequence: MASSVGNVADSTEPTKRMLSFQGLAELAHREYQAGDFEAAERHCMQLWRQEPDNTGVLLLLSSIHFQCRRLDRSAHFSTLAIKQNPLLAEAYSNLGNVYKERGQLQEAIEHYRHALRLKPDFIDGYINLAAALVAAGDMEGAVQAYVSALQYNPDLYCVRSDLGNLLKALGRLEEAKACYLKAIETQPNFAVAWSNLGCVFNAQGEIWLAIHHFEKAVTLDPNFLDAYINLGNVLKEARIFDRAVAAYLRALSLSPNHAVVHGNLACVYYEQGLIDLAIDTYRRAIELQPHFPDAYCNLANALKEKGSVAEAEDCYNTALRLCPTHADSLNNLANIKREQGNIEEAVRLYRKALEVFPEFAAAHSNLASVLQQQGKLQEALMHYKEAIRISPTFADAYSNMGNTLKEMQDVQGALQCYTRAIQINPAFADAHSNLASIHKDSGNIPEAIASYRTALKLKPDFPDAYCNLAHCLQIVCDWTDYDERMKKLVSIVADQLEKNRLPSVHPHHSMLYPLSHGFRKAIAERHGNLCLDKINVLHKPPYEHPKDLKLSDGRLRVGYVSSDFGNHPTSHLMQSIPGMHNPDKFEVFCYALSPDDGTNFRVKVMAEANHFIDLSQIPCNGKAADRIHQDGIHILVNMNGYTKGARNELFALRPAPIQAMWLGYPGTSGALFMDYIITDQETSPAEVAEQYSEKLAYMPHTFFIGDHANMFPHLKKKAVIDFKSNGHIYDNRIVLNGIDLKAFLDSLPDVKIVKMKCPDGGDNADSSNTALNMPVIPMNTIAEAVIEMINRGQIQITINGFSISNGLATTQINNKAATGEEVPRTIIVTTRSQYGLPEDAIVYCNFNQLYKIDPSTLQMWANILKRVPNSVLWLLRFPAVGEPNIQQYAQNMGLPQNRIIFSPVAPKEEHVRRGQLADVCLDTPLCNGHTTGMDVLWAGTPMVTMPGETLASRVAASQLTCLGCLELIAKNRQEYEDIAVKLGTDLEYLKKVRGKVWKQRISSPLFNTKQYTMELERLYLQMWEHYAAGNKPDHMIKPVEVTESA

[5] = biological target: T5, Flag-OGT-S20A (UniProt O15294); experiment: as above
T5 sequence: T4 sequence with S20A

binding [1]: binds
binding [2]: binds
binding [3]: binds
B1: HA-OGT-WT (enzyme, UniProt O15294 1-1046)
chain: T4 sequence

binding [1]: binds
binding [2]: binds
binding [3]: binds
B2: HA-OGT-R17C (enzyme, UniProt O15294 1-1046)
chain: T4 sequence with R17C

binding [4]: binds
binding [5]: binds
B3: HA-14-3-3-θ (protein, UniProt P27348 1-245)
chain: MEKTELIQKAKLAEQAERYDDMATCMKAVTEQGAELSNEERNLLSVAYKNVVGGRRSAWRVISSIEQKTDTSDKKLQLIKDYREKVESELRSICTTVLELLDKYLIANATNPESKVFYLKMKGDYFRYLAEVACGDDRKQTIDNSQGAYQEAFDISKKEMQPTHPIRLGLALNFSVFYYEILNNPELACTLAKTAFDEAIAELDTLNEDSYKDSTLIMQLLRDNLTLWTSDSAGEECDAAEGAEN

binding [4]: binds
binding [5]: binds
B4: HA-14-3-3-η (protein, UniProt Q04917 1-246)
chain: MGDREQLLQRARLAEQAERYDDMASAMKAVTELNEPLSNEDRNLLSVAYKNVVGARRSSWRVISSIEQKTMADGNEKKLEKVKAYREKIEKELETVCNDVLSLLDKFLIKNCNDFQYESKVFYLKMKGDYYRYLAEVASGEKKNSVVEASEAAYKEAFEISKEQMQPTHPIRLGLALNFSVFYYEIQNAPEQACLLAKQAFDDAIAELDTLNEDSYKDSTLIMQLLRDNLTLWTSDQQDEEAGEGN

binding [4]: binds
binding [5]: binds
B5: HA-14-3-3-γ (protein, UniProt P61981 1-247)
chain: MVDREQLVQKARLAEQAERYDDMAAAMKNVTELNEPLSNEERNLLSVAYKNVVGARRSSWRVISSIEQKTSADGNEKKIEMVRAYREKIEKELEAVCQDVLSLLDNYLIKNCSETQYESKVFYLKMKGDYYRYLAEVATGEKRATVVESSEKAYSEAHEISKEHMQPTHPIRLGLALNYSVFYYEIQNAPEQACHLAKTAFDDAIAELDTLNEDSYKDSTLIMQLLRDNLTLWTSDQQDDDGGEGNN
